Laboratory results as given in patent publication US20160152831A1, “YELLOW COLORANT FOR HAIR DYEING, COMPOSITION FOR HAIR DYEING, AND HAIR DYEING METHOD” (HODOGAYA CHEMICAL CO., LTD., priority 2013, published 2016).

Experiments:
[1] = Hair dyeing of human gray hair in dye composition; dyeing density (K/Sd) and color values by spectrophotometer; details: for K/Sd (dyeing density) / L* / a* / b*: 0.2% dye, 8% benzyloxyethoxyethanol, pH 6, 45° C. 20 minutes; for color of dyed hair: Table 3 test samples, pH 6
Protocol: In the following Examples and Comparative Examples, the test samples obtained were evaluated by using a spectrophotometer (Color Technosystem, JS555). The dyeing density (K/Sd) was calculated according to the following process. The reflectance (Rλ) at an indicated wavelength (λ) of the test sample before dyeing (gray hair) and after dyeing (dyed hair) was measured with the spectrophotometer, and according to the following Kubelka-Munk equation, the optical density (K/S) was calculated. The value calculated by subtracting the optical density (K/S) of the gray hair from the optical density (K/S) of the dyed hair is referred to as the dyeing density (K/Sd).
Rλ: reflectance at wavelength (λ),
λ: 400 to 700 nm (at intervals of 10 nm)
Regarding the color, L*, ^a* and b* were measured by using the spectrophotometer and using a color coordinate system CIE L*a*b*, The L* indicates brightness and larger value means a lower coloration intensity. The a* and b* are chromaticity each indicating hue and saturation. The a* corresponds to the pair axis of red/green, and a positive value means red and a negative value means green. The b* corresponds to the pair axis of yellow/blue, and a positive value means yellow and a negative value means blue.
The color (L*, a*, b*) of the test sample before dyeing and after dyeing was measured, and from the value of the difference ΔL*, Δa* and Δb*, the color difference ΔE* was calculated according to the following equation.
ΔE*={(ΔL*)^2+(Δa*)+(Δb*)^2}^1/2
In the resultant aqueous solution having a pH of 6 were added Yellow 29 as a dye and benzyloxyethoxyethanol as a penetrant in the ratio as shown in Table 2 to prepare a composition for hair dyeing having a pH of 6. A 10 g of the thus-prepared composition for hair dyeing was metered, and 1 g of human gray hair (100%, Beaulax, Item Code BM-W-A) was put thereinto and dyed at 45° C. for 20 minutes. The resultant dyed hair was rinsed with water (running water at 15 to 25° C., for about 1 minute), then soaped under the soaping condition mentioned below, further rinsed with water (running water at 15 to 25° C., for about 1 minute), and then spontaneously dried at room temperature (about 20° C.) to prepare a test sample. In the following Examples and Comparative Examples, the pH of the composition for hair dyeing was controlled in the manner as in Table 1. In the Table, the concentration (g/kg) indicates the concentration of the p1:1 regulator in the aqueous solution.
Soaping liquid: aqueous 5% sodium laurylsulfate solution
Bath ratio: 1/10 (mass of soaping liquid relative to 1 g mass of dyed hair)
(§1) Processing temperature: 45° C.
Processing time: 5 minutes

[2] = Light-fastness test of dyed hair (xenon fade meter); assay type: physicochemical, human
Protocol: A composition for hair dyeing having a pH of 6 was prepared according to the compounding formation as shown in Table 6 by using Yellow 29 as the dye. By using the thus-prepared composition for hair dyeing, a test sample was prepared according to the same method as in Example 1. The resultant test sample was exposed to white light at an irradiation dose of 330 W/m^2 for 20 hours, by using a xenon long-life fade meter light-fastness tester Suga Test Instrument, FAL-25AX-HC-BEC Model), and the dyeing density (K/Sd) and the color values (L*, a*, b*) before and after the test, and the color difference (ΔE*) were determined. The light-fastness test was carried out under the condition where the temperature of the test sample could be from 60 to 66° C.

[3] = Shampooing-fastness test of dyed hair; assay type: physicochemical, human
Protocol: The test sample with Yellow 29 prepared in Example 1 was tested according to the shampooing-fastness test mentioned below, and the dyeing density (K/Sd) and color difference (ΔE*) before and after the test were determined. In the Table, the residual ratio (%) means the ratio of the dyeing density after the test to the dyeing density before the test.
The test sample was subjected to a cycle operation of (1) shampooing followed by (2) treatment as mentioned below, repeatedly five times in all, and then spontaneously dried at room temperature (about 20° C.).
Shampoo liquid: aqueous 5% sodium laurylsulfate solution
Bath ratio: 1/10 (mass of shampooing liquid relative to 1 g mass of dyed hair)
as §1
Processing time: 20 minutes
Post-treatment: rinsing with water
Treatment liquid: aqueous 5% trimethylstearylammonium chloride solution
Bath ratio: 1/10 (mass of treatment liquid relative to 1 g mass of dyed hair)

[4] = after test, 330 W/m^2, 20 hours
[5] = after test, white light 330 W/m^2, 20 hours
[6] = before test, 0.2% dye, 8% benzyl alcohol, 8% ethanol, pH 6
[7] = after test, 5 cycles of shampooing and treatment, 45° C.

SMILES	K/Sd (dyeing density) [1]	L* [1]	a* [1]	b* [1]	color of dyed hair [1]	L* [2, 4]	a* [2, 4]	b* [2, 4]	K/Sd [2, 5]	L* ([2]; before test)	a* ([2]; before test)	b* ([2]; before test)	K/Sd [2, 6]	L* ([3]; after test, 5 cycles)	a* ([3]; after test, 5 cycles)	b* ([3]; after test, 5 cycles)	K/Sd [3, 7]	K/Sd ([3]; before test)	L* ([3]; before test)	a* ([3]; before test)	also measured
Cc1nn(-c2ccccc2)c(O)c1/N=N/c1cccc([N+](C)(C)C)c1.[Cl-] [Yellow 57, C.I. Basic Yellow 57]	28.5	74.73	1.68	47.03	pale yellow	69.71	0.98	41.17	29.7	74.81	2.08	49.92	30.4								
CN(/N=C\c1cc[n+](C)cc1)c1ccccc1 [Yellow 87, C.I. Basic Yellow 87]	65.5	74.04	1.64	68.74	slightly pale yellow									75.22	−3.04	48.46	21.8	65.5	74.04	1.64	b* ([3]; before test): 69.74
Cc1ccc(N(C)/N=C/C2=[N+](C)c3ccccc3C2(C)C)cc1 [Yellow 29, C. I. Basic Yellow 29]	96.5	68.98	18.83	72.42	standard yellow	71.33	13.79	72.82	75.1	71.38	15.36	75.08	84.6	71.12	12.62	71.99	79.2	96.5	68.98	18.83	b* ([3]; before test): 72.42
